In PubChem BioAssay AID1347076 (National Center for Advancing Translational Sciences (NCATS), 2019):
The whole screen tested about 400,000 compounds, of which about 13,000 (3.2%) were called active. This list was built around the results that the source calls inconclusive (neither active nor inactive); the mix of calls is not that of the screen. Calls come from the whole dose curve; as a rule, active = well fitted cell-killing curve with a large enough effect; inconclusive = small, poorly fitted or top-dose-only effect, or effect the other way; inactive = flat fitted curve, though single readings scatter. Where the call is inconclusive, the potency comes from a doubtful curve fit.

Assay: qHTS assay for MDR1-selective chemotherapeutics: Primary screen using the drug-selected MDR subline cells KB-V1; note: nearly all actives have a fitted effect of over 60% in size
Settings: KB-V1 MDR cells viability, CellTiter-Glo, 72 h; activity change, negative = cytotoxicity: at 46.1 µM (top of the series)
Procedure, shortened: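 qHTS viability screen in drug-selected KB-V1 MDR cells: 72 h compound treatment at 37 degrees C, ATP luminescence end point.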
% is set by controls: 0 for no effect and ±100 for the full control effect; potency is the fitted concentration of half-maximal effect.

For `Cc1ccc(NC(=O)CCNS(=O)(=O)c2cccc3nsnc23)cc1`, which Potency is on record?
The Potency was inconclusive: 20.6 µM [cytotoxic, single point].

Which Potency does the source give for `CC(C)C[C@@H](CN1CCC[C@@H]1CN1C(=O)C(=O)NC[C@@H]1Cc1ccccc1)N1C[C@H](Cc2ccc(O)cc2)N(CC2CCCCC2)C(=O)C1=O` here?
The Potency was inconclusive: 14.6 µM [rising, single point].

With `COc1ccc2[nH]c(C(=O)O)c(CCN3C(=O)c4cccc([N+](=O)[O-])c4C3=O)c2c1` as the molecule, how does the Potency read?
The Potency was “inactive”.

With `COc1cc(/C=C2/SC(=Nc3ccc(O)cc3)NC2=O)ccc1O` as the molecule, how does the Potency read?
Its Potency is inconclusive: 2.91 µM [cytotoxic, full curve].

For `CSc1ccc(CN(C)CC(=O)Nc2ccc(NC(C)=O)cc2)cc1`, which Potency is on record?
Its Potency is inconclusive: 25.9 µM [cytotoxic, single point].

Which Potency does the source give for `Cc1cc2nc(CCN(Cc3cccnc3)C(=S)Nc3ccc(F)cc3)[nH]c2cc1C` here?
The Potency was “inactive”.

Which Potency does the source give for `CC1(C(=O)Nc2cccc3cccnc23)CCN1Cc1csc2ccccc12` (stereo not drawn) here?
Its Potency is “inactive”.

With `CC1C=CCC2C(=O)N(c3cccc(C(=O)N4CCN(c5ccc(F)cc5)CC4)c3)C(=O)C12` (stereo not drawn) as the molecule, how does the Potency read?
The Potency was active: 18.4 µM.

With `COc1ccc(C(CC(=O)O)N2C(=O)CCC2=O)cc1` (stereo not drawn) as the molecule, how does the Potency read?
Its Potency is “inactive”.

For `CCCCCCCCCC(=O)N1CCN(c2cc3c(cc2F)c(=O)c(C(=O)O)cn3CC)CC1`, which Potency is on record?
Its Potency is inconclusive: 32.6 µM [cytotoxic, single point].

With `Cc1ccc(-c2c(C#N)c(N)n(-c3ccccc3)c(=O)c2C#N)cc1` as the molecule, how does the Potency read?
Its Potency is “inactive”.

With `Nc1ccccc1-c1ccc([N+](=O)[O-])cc1` as the molecule, how does the Potency read?
The Potency was “inactive”.

For `Cc1nc2sccn2c(=O)c1S(=O)(=O)NCC1CCN(Cc2ccccc2Cl)CC1`, which Potency is on record?
The Potency was inconclusive: 29.1 µM [cytotoxic, single point].

With `CCOc1ccc(N(C(=O)c2ccc(C)cc2)S(=O)(=O)c2ccc3c(c2)n(C)c(=O)n3C)cc1` as the molecule, how does the Potency read?
The Potency was “inactive”.

For `Cc1ccc(N(C(=O)c2csnn2)C(C(=O)NC2CCCC2)c2ccccn2)cc1` (stereo not drawn), which Potency is on record?
Its Potency is inconclusive: 16.4 µM [cytotoxic, single point].

For `CCN(CC)S(=O)(=O)c1cccc(C(=O)OCC(=O)NCCN2C(=O)CSC2=O)c1`, which Potency is on record?
The Potency was inconclusive: 32.6 µM [rising, single point].

With `C=CCOc1ccc(/C=C/C(=O)OCc2csc(CC(=O)Nc3ccccc3C)n2)cc1` as the molecule, how does the Potency read?
Its Potency is inconclusive: 29.1 µM [cytotoxic, single point].

With `Cn1nnnc1N=N/C(=N/Nc1ccccc1)c1ccccc1` as the molecule, how does the Potency read?
The Potency was inconclusive: 23.1 µM [cytotoxic, single point].

For `Cc1ccc(Cl)cc1N1CCN(C(=O)Cn2cnc3nc4c(cc3c2=O)CCCC4)CC1`, which activity change, negative = cytotoxicity is on record?
Its activity change, negative = cytotoxicity is inconclusive: -32.5% [cytotoxic].

With `COC(=O)COc1ccc(S(=O)(=O)N2CCN(c3ccc(F)cc3)CC2)cc1` as the molecule, how does the Potency read?
Its Potency is “inactive”.

Which Potency does the source give for `COc1cc(/C=N/NC(=O)CCC(=O)Nc2ccc(Br)cc2)ccc1O` here?
The Potency was inconclusive: 20.6 µM [rising, partial curve, poor fit].

With `Cc1ccc(C)n1-c1nnc(N2CCCC(C(=O)NCc3ccc(F)cc3)C2)s1` (stereo not drawn) as the molecule, how does the Potency read?
Its Potency is “inactive”.

With `Cc1ccc(C(C(=O)NCC2CCCO2)N(C(=O)c2snc(C(N)=O)c2N)c2ccccc2)o1` (stereo not drawn) as the molecule, how does the Potency read?
Its Potency is inconclusive: 18.4 µM [cytotoxic, single point].

For `COc1ccc(-c2csc(NC(=S)NC(=O)c3cccs3)n2)cc1Br`, which Potency is on record?
Its Potency is inconclusive: 29.1 µM [cytotoxic, single point].

With `COc1ccc2cc(C(=O)Nc3ccccc3)sc(=O)c2c1OC` as the molecule, how does the Potency read?
The Potency was inconclusive: 6.51 µM [cytotoxic, partial curve].

Which Potency does the source give for `CC(C)(C)C(=O)N1CCN(c2ccc(NC(=O)c3ccc([N+](=O)[O-])o3)cc2)CC1` here?
The Potency was inconclusive: 2.91 µM [cytotoxic, full curve].

Which activity change, negative = cytotoxicity does the source give for `CCOC(=O)c1c(C)[nH]c(C(=O)CSc2nnnn2-c2ccccc2)c1C` here?
Its activity change, negative = cytotoxicity is inconclusive: -12.9%.

For `O=C(Nc1ccc(N2CCOCC2)cc1)c1csc(COCCO)n1`, which Potency is on record?
Its Potency is inconclusive: 20.6 µM [cytotoxic, single point].

For `COC(=O)[C@@]12C[C@@H](CC(=O)NCc3ccc(C)o3)C(=O)N(Cc3cccc4ccccc34)C1=CCC(C)(C)C2`, which Potency is on record?
Its Potency is inconclusive: 20.6 µM [cytotoxic, partial curve].

For `O=C(c1ccc2c(=O)n(-c3ccccc3)c(=O)[nH]c2c1)N1CCN(Cc2cccs2)CC1`, which Potency is on record?
The Potency was “inactive”.

With `O=C1CCN(c2ccccc2)N1` as the molecule, how does the Potency read?
The Potency was inconclusive: 32.6 µM [rising, partial curve, poor fit].

With `COc1ccc(OC)c(NC(=O)c2ccc3c(c2)c(C)c(C)n3Cc2ccc(F)cc2)c1` as the molecule, how does the Potency read?
Its Potency is “inactive”.

Which Potency does the source give for `CCOC(=O)c1ccc(NC(=O)Cc2ccc(-n3c(CC)nc4cccnc43)cc2)cc1` here?
The Potency was “inactive”.

Which Potency does the source give for `Cc1nc(CNC(=O)CC2C(=O)NCCN2Cc2ccc(F)cc2)cs1` (stereo not drawn) here?
The Potency was inconclusive: 29.1 µM [rising, single point].

Which Potency does the source give for `O=C(CC(c1ccccc1)c1cc(Br)ccc1O)NCC1(c2ccccc2)CCCC1` (stereo not drawn) here?
The Potency was inconclusive: 25.9 µM [cytotoxic, single point].

For `CCN1C(=O)/C(=C/c2cccs2)N(C)C1=S`, which Potency is on record?
The Potency was inconclusive: 29.1 µM [cytotoxic, single point].

For `Cc1ccc(OCc2nnc(SCC(=O)C(C)(C)C)n2Cc2ccco2)cc1`, which Potency is on record?
The Potency was inconclusive: 11.6 µM [cytotoxic, partial curve].

With `Oc1ccc(Cl)cc1Nc1nc2ccccc2n2cnnc12` as the molecule, how does the Potency read?
The Potency was inconclusive: 20.6 µM [rising, partial curve, poor fit].

For `COc1ccc(-n2c(SCC#N)nc3c(sc(=S)n3-c3ccccc3)c2=O)c(OC)c1`, which Potency is on record?
Its Potency is “inactive”.

Which Potency does the source give for `COc1ccccc1N(Cc1cc2cccc(C)c2[nH]c1=O)C(=O)c1cccc(Cl)c1` here?
The Potency was inconclusive: 32.6 µM [cytotoxic, single point].

With `Cc1ccc(NP(=O)(Nc2ccc(C)cc2)Nc2ccc(C)cc2)cc1` as the molecule, how does the Potency read?
The Potency was inconclusive: 29.1 µM [cytotoxic, single point].

With `CC(=O)c1c(C)[nH]c(C(=O)Nc2ccc(C)c(C)c2)c1C` as the molecule, how does the Potency read?
Its Potency is inconclusive: 32.6 µM [cytotoxic, single point].

For `COc1ccc(NC(=O)CN(C)C(=O)c2cc(C3CC3)nn2-c2ccccc2)cc1`, which Potency is on record?
The Potency was “inactive”.
